According to patent US20240293587A1, “CXCR4-TARGETED DIAGNOSTIC AND THERAPEUTIC AGENTS WITH REDUCED SPECIES SELECTIVITY” (TECHNISCHE UNIVERSITÄT MÜNCHEN, priority 2018, published 2024):
For some assays here: Part of at least one peptide drawing is inferred or uncertain, most often the ends. For at least one compound, name, drawing or mass did not settle the structure. Non-standard residues stand in square brackets, D forms with d. Residues, ends and D or L forms follow the SMILES beside them. dAla(N-(6-guanidinohexyl)) = C[C@@H](NCCCCCCNC(=N)N)C(=O)O; 2Nal = N[C@@H](Cc1ccc2ccccc2c1)C(=O)O

The chains behind the UniProt entries cited, without tags or fusion partners.
UniProt P61073, whole entry: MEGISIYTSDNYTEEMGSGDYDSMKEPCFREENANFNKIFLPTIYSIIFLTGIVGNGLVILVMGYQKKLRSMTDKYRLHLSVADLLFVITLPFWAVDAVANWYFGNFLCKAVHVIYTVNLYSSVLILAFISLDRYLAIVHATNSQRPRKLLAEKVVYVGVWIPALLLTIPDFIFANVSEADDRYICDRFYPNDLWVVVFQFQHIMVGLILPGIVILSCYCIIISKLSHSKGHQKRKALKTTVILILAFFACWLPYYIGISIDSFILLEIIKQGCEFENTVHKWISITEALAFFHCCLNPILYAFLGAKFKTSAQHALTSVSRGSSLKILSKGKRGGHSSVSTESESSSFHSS
UniProt P70658, whole entry: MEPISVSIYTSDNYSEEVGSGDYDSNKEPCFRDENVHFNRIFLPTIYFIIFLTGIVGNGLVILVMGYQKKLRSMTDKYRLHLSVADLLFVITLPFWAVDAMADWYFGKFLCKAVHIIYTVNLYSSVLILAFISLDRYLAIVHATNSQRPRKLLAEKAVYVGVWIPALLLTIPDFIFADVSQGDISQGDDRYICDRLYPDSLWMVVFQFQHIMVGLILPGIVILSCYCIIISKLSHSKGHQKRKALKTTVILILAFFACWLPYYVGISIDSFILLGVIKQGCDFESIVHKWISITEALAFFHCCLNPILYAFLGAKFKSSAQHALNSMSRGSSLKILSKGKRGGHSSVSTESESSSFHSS

Assays:
human CXCR4 (hCXCR4) = human CXCR4 (hCXCR4) (Homo sapiens (Human), UniProt P61073); assay: Competition binding on Jurkat cells with [125I]R1 as radioligand; conditions: 200.000 cells/sample, [125I]R1 radioligand, mean ± SD
Method: (§1) For the determination of hCXCR4-affinity, competition binding experiments were performed using Jurkat cells and [^125I]FC131 or [^125I]R1 as radioligand. Affinity to mCXCR4 and rCXCR4 was determined using Eμ-Myc1080 mouse B-cell lyphoma cells ^57 or C6 rat glioma cells, respectively, and [^125I]R1 as the radioligand.
(§2) For IC50 determination using Jurkat or Eμ-Myc1080 cells, samples containing 2×10^5 cells (or 4×10^5 cells; exact cell number used in the respective evaluations is given in the results section) in Hank's balanced salt solution (HBSS)/1% Bovine Serum Albumin (BSA) were incubated with 100.000 cpm of the respective radioligand (approx. 0.1 nM) in the presence of increasing concentrations (10^−11 to 10^−5 M) of the respective peptide of interest (n=3 per concentration). The total sample volume was 250 μL. After incubation at room temperature (RT) for 120 min with gentle agitation (200 mot/min), the tubes were centrifuged (5 min, 450g, Megafuge 1.0, Heraeus Thermo Scientific) and the supernatant was carefully removed. After washing twice with 400 μL of cold HBSS, the amount of cell-bound radioligand was quantified using a […]-counter.
(§3) IC50 values were calculated using PRISM 6 software (Graph Pad Software, San Diego, CA) using a three-parameter sigmoidal dose response curve fit.

mouse CXCR4 (mCXCR4) = mouse CXCR4 (mCXCR4) (Mus musculus (Mouse), UniProt P70658); assay: Competition binding on Eμ-Myc1080 mouse B-cell lymphoma cells with [125I]R1 as radioligand; conditions: 200.000 cells/sample, [125I]R1 radioligand, mean ± SD
Method: as §1, §2, §3

murine receptor (mCXCR4) = murine receptor (mCXCR4) (Mus musculus (Mouse), UniProt P70658); conditions: background statement; cited from earlier work

Compound | IC50 (human CXCR4 (hCXCR4)) | IC50 (mouse CXCR4 (mCXCR4)) | affinity to mCXCR4 (in words) (murine receptor (mCXCR4))
C[C@@H]1C(=O)N[C@@H](CCCNC(=N)N)C(=O)N[C@@H](Cc2ccc3ccccc3c2)C(=O)NCC(=O)N[C@H](Cc2ccc(O)cc2)C(=O)N1CCCCCCNC(=N)NCCCCCCNC(=O)[C@@H](CCCNC(=N)N)NC(=O)CCCCC[N+]1=C(/C=C/C=C/C=C2/N(CCO[C@@H]3O[C@H](CO)[C@@H](O[C@@H]4O[C@H](CO)[C@@H](O)[C@H](O)[C@H]4O)[C@H](O)[C@H]3O)c3ccc(S(=O)(=O)O)cc3C2(C)C)C(C)(C)c2cc(S(=O)(=O)[O-])ccc21 [P5i, Cel-Sulfo2-Cy5-arg-Hex-CPCR4.3] | 147 ± 73 nM | 92 ± 30 nM | 
C[C@@H]1C(=O)N[C@@H](CCCNC(=N)N)C(=O)N[C@@H](Cc2ccc3ccccc3c2)C(=O)NCC(=O)N[C@H](Cc2ccc(O)cc2)C(=O)N1CCCCCCNC(=N)N [R, c(y-(NHexGua)a-R-Nal-G)] (cyclo([dY][dAla(N-(6-guanidinohexyl))]R[2Nal]G)) |  |  | equally high affinity
C[C@@H]1C(=O)N[C@@H](CCCNC(=N)N)C(=O)N[C@@H](Cc2ccc3ccccc3c2)C(=O)NCC(=O)N[C@H](Cc2ccc(O)cc2)C(=O)N1CCCCCCNC(=N)NCCCCCCNC(=O)CCOCCOCCOCCOCCNC(=O)CCCCC[N+]1=C(/C=C/C=C/C=C2/N(CCO[C@@H]3O[C@H](CO)[C@@H](O[C@@H]4O[C@H](CO)[C@@H](O)[C@H](O)[C@H]4O)[C@H](O)[C@H]3O)c3ccc(S(=O)(=O)O)cc3C2(C)C)C(C)(C)c2cc(S(=O)(=O)[O-])ccc21 [P5h, Cel-Sulfo2-Cy5-PEG4-Hex-CPCR4.3] | 129 ± 27 nM | 156 ± 37 nM | 
